Results are given in words; binding and its absence hold for the method and conditions named. In cells and extracts the contact can be indirect. Some results given as binding are weak or reduced against the parent protein; the word gives no strength.
Assays:
[1] = molecular target: T6BP (TAX1BP1), endogenous (human (endogenous in HeLa-CIITA, DG-75, KG-1)) (UniProt Q86VP1); assay: co-IP; endogenous proteins from dendritic-like (KG-1, DC) cells; IP with anti-T6BP or anti-CANX, Western blot; beads without antibody as control
[2] = molecular target: T6BP (TAX1BP1), endogenous (human (endogenous in HeLa-CIITA, DG-75, KG-1)) (UniProt Q86VP1); assay: proximity ligation; fixed HeLa-CIITA cells 48 h after siCTRL or siT6BP, anti-T6BP (rabbit) and anti-CANX (mouse), Duolink PLA, dots per cell
[3] = molecular target: T6BP (TAX1BP1), endogenous (human (endogenous in HeLa-CIITA, DG-75, KG-1)) (UniProt Q86VP1); assay: co-IP; endogenous proteins from HeLa-CIITA lysate; anti-TAX1BP1 HPA024432 with protein A Sepharose or anti-CANX PA5-34754 on protein A magnetic beads; Western blot; beads without antibody as control
[4] = molecular target: T6BP (TAX1BP1), endogenous (human (endogenous in HeLa-CIITA, DG-75, KG-1)) (UniProt Q86VP1); assay: co-IP; endogenous proteins from B (DG-75) cells; IP with anti-T6BP or anti-CANX, Western blot; beads without antibody as control

Chains of the proteins cited; added tags and fusions are not shown.
UniProt Q86VP1: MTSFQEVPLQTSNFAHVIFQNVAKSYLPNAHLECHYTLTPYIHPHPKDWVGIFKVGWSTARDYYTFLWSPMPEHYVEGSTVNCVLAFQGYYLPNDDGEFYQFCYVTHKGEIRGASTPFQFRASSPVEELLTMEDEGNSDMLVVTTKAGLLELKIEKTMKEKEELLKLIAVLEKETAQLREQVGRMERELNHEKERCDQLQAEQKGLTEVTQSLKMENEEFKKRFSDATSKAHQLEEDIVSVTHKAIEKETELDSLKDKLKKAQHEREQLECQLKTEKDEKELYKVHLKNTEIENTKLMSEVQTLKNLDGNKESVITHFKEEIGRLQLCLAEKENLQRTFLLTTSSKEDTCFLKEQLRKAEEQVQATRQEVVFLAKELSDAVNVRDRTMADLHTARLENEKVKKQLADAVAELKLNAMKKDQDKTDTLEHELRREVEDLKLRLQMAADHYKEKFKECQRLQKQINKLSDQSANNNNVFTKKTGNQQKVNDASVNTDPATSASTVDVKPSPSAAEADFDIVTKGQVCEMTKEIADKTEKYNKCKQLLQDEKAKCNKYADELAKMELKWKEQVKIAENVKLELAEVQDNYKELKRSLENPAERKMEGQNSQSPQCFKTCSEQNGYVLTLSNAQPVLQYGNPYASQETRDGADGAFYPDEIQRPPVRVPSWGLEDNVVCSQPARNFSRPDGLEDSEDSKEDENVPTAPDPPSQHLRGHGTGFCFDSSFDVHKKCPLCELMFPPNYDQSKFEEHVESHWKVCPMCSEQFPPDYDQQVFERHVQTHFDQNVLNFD

Measured: binding

B1: Calnexin (CANX), endogenous (natural protein, UniProt P27824 21-592, looked up)
chain: HDGHDDDVIDIEDDLDDVIEEVEDSKPDTTAPPSSPKVTYKAPVPTGEVYFADSFDRGTLSGWILSKAKKDDTDDEIAKYDGKWEVEEMKESKLPGDKGLVLMSRAKHHAISAKLNKPFLFDTKPLIVQYEVNFQNGIECGGAYVKLLSKTPELNLDQFHDKTPYTIMFGPDKCGEDYKLHFIFRHKNPKTGIYEEKHAKRPDADLKTYFTDKKTHLYTLILNPDNSFEILVDQSVVNSGNLLNDMTPPVNPSREIEDPEDRKPEDWDERPKIPDPEAVKPDDWDEDAPAKIPDEEATKPEGWLDDEPEYVPDPDAEKPEDWDEDMDGEWEAPQIANPRCESAPGCGVWQRPVIDNPNYKGKWKPPMIDNPSYQGIWKPRKIPNPDFFEDLEPFRMTPFSAIGLELWSMTSDIFFDNFIICADRRIVDDWANDGWGLKKAADGAAEPGVVGQMIEAAEERPWLWVVYILTVALPVFLVILFCCSGKKQTSGMEYKKTDAPQPDVKEEEEEKEEEKDKGDEEEEGEEKLEEKQKSDAEEDGGTVSQEEEDRKPKAEEDEILNRSPRNRKPRRE
notes: ER-resident chaperone calnexin, endogenous; source: endogenous, HeLa-CIITA, DG-75 (B) and KG-1 (dendritic-like) lysates; endogenous in fixed HeLa-CIITA cells
binds: all assays above

From PMC9724678, “The Autophagy Receptor TAX1BP1 (T6BP) improves antigen presentation by MHC‐II molecules” (EMBO Reports, 2022)
